{"source": "patent US6455528B1", "about": "“Piperazine compounds and medicinal use thereof” (Mitsubishi Pharma Corporation, priority 1997, dated 2002)", "key": {"female BALB/c mice": {"tested_on": "female BALB/c mice", "conditions": "LPS 10 mg/kg i.p.; test compound orally 30 min before LPS; survival monitored for 3 days; 9 mice per group; all non-administered mice died"}, "male Lewis rats": {"tested_on": "male Lewis rats", "conditions": "rat, in vivo"}}, "data": [{"smiles": "CC(=O)NCc1ccc(CN2CCN(c3ccc(F)cc3F)CC2)cc1", "note": "[Example 20, N-(4-((4-(2,4-Difluorophenyl)piperazin-1-yl)methyl)phenylmethyl)acetamide]", "values": [{"measurement": "mice survived", "setting": "female BALB/c mice", "value": 8, "unit": "mice"}, {"measurement": "volume of the limb decreased by (change from day 15 to day 20)", "setting": "male Lewis rats", "value": 0.186, "unit": "mL"}]}]}
